Measured values reported in PMC7545163.
No constants are given. Whether binding was seen depends on the method and setting. Binding seen in cells or lysates may run through a third protein. Some entries that bind do so weakly or less than the wild type. Tags and fused reporters may be left off the sequences shown.

Sequences of proteins named here, by UniProt entry; tags and fusion partners are left off.
UniProt Q99J83: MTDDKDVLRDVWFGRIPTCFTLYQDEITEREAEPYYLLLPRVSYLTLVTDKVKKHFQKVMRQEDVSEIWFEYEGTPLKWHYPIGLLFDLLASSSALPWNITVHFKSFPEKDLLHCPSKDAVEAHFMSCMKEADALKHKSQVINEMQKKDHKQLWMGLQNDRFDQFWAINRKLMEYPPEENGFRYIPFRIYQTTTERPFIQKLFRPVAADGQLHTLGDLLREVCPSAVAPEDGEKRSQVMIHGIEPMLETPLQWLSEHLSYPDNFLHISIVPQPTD
UniProt Q9CQY1: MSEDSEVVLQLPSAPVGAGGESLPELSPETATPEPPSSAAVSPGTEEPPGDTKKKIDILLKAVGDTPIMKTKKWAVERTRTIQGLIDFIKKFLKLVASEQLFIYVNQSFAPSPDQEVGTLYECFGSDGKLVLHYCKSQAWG

What was measured:
[1] = target: FLAG-Atg5 (mouse) (mouse) (UniProt Q99J83); experiment: co-IP
[2] = target: FLAG-Atg12 (mouse) (mouse) (UniProt Q9CQY1); experiment: co-IP

B1: Myc-Msr1 (mouse macrophage scavenger receptor 1) (receptor, UniProt P30204 1-458)
chain: MTKEMTENQRLCPHEQEDADCSSESVKFDARSMTASLPHSTKNGPSLQEKLKSFKAALIALYLLVFAVLIPVVGIVTAQLLNWEMKNCLVCSLNTSDTSQGPMEKENTSKVEMRFTIIMEHMKDMEERIESISNSKADLIDTERFQNFSMATDQRLNDILLQLNSLISSVQEHGNSLDAISKSLQSLNMTLLDVQLHTETLNVRVRESTAKQQEDISKLEERVYKVSAEVQSVKEEQAHVEQEVKQEVRVLNNITNDLRLKDWEHSQTLKNITFIQGPPGPQGEKGDRGLTGQTGPPGAPGIRGIPGVKGDRGQIGFPGGRGNPGAPGKPGRSGSPGPKGQKGEKGSVGGSTPLKTVRLVGGSGAHEGRVEIFHQGQWGTICDDRWDIRAGQVVCRSLGYQEVLAVHKRAHFGQGTGPIWLNEVMCFGRESSIENCKINQWGVLSCSHSEDAGVTCTS
binding [1]: binds | binding [2]: binds
